Data as given in patent publication US11179394B2, “Method for treating cancer using a combination of Chk1 and ATR inhibitors” (priority 2014, dated 2021).
Some results were stated once for a whole list of compounds, not compound by compound.

Test system: U2OS cells
Assay: Cleaved caspase-3 (apoptosis) with hydroxyurea
Type: cell-based
Conditions: 24 hr, added to hydroxyurea (2 mM)

NC(=O)Nc1cc(-c2cccc(F)c2)sc1C(=O)N[C@H]1CCCNC1 [AZD7762, reference compound]
cells positive for cleaved caspase-3: < 1%

CS(=O)(=O)c1ccc(-c2cnc(N)c(C(=O)Nc3ccccc3)n2)cc1 [VE-821]
cells positive for cleaved caspase-3: < 1%
